The target of this assay is T1, CD2 Binding Protein 2 (CD2BP2/U5-52K), FLAG-tagged (human) (UniProt O95400).
T1 sequence: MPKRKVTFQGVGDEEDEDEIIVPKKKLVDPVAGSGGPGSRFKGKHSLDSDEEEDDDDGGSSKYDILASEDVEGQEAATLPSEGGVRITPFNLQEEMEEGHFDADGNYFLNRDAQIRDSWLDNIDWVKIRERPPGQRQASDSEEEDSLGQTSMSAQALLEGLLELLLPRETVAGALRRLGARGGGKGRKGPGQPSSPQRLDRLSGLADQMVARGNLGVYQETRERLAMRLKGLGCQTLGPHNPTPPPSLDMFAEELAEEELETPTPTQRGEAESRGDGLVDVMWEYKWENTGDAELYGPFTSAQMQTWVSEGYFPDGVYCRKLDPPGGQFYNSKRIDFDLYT
As to the kind of experiment: cross-linking; anti-FLAG IP of CD2BP2-FLAG from HEK293T CD2BP2-/- lysate (~100 mg protein), on-bead crosslinking with DSSO, tryptic digest, LC-MS2-MS3, XlinkX, 1 % FDR; two technical and two biological replicates.

These are yes or no findings as the source states them, for the method shown. In cells and extracts the contact can be indirect. Some results given as binding are weak or reduced against the parent protein; the word gives no strength. Sequences can lack the tags named with a protein.

B1: Prp6 (protein, UniProt O94906 1-941)
chain: MNKKKKPFLGMPAPLGYVPGLGRGATGFTTRSDIGPARDANDPVDDRHAPPGKRTVGDQMKKNQAADDDDEDLNDTNYDEFNGYAGSLFSSGPYEKDDEEADAIYAALDKRMDERRKERREQREKEEIEKYRMERPKIQQQFSDLKRKLAEVTEEEWLSIPEVGDARNKRQRNPRYEKLTPVPDSFFAKHLQTGENHTSVDPRQTQFGGLNTPYPGGLNTPYPGGMTPGLMTPGTGELDMRKIGQARNTLMDMRLSQVSDSVSGQTVVDPKGYLTDLNSMIPTHGGDINDIKKARLLLKSVRETNPHHPPAWIASARLEEVTGKLQVARNLIMKGTEMCPKSEDVWLEAARLQPGDTAKAVVAQAVRHLPQSVRIYIRAAELETDIRAKKRVLRKALEHVPNSVRLWKAAVELEEPEDARIMLSRAVECCPTSVELWLALARLETYENARKVLNKARENIPTDRHIWITAAKLEEANGNTQMVEKIIDRAITSLRANGVEINREQWIQDAEECDRAGSVATCQAVMRAVIGIGIEEEDRKHTWMEDADSCVAHNALECARAIYAYALQVFPSKKSVWLRAAYFEKNHGTRESLEALLQRAVAHCPKAEVLWLMGAKSKWLAGDVPAARSILALAFQANPNSEEIWLAAVKLESENDEYERARRLLAKARSSAPTARVFMKSVKLEWVQDNIRAAQDLCEEALRHYEDFPKLWMMKGQIEEQKEMMEKAREAYNQGLKKCPHSTPLWLLLSRLEEKIGQLTRARAILEKSRLKNPKNPGLWLESVRLEYRAGLKNIANTLMAKALQECPNSGILWSEAIFLEARPQRRTKSVDALKKCEHDPHVLLAVAKLFWSQRKITKAREWFHRTVKIDSDLGDAWAFFYKFELQHGTEEQQEEVRKRCESAEPRHGELWCAVSKDIANWQKKIGDILRLVAGRIKNTF
As for B1, the binding result is given as “binds”.

For the origin of these results see PMC11412891.
